Here are results for five substances from paper PMC8244865, “Recruitment of phospholipase Cγ1 to the non-structural membrane protein pK15 of Kaposi Sarcoma-associated herpesvirus promotes its Src-dependent phosphorylation” (PLoS Pathogens, 2021).

For assay [1], the target named is T1, GST-fused pK15 cytoplasmic tail (pK15 CT WT), phosphorylated in vitro by Src (Kaposi Sarcoma-associated herpesvirus (KSHV, HHV-8)) (UniProt Q9QR69).
T1 sequence (chain, phosphotyrosine at Y481 (dominant band) and Y431 (minor band), in vitro by Src): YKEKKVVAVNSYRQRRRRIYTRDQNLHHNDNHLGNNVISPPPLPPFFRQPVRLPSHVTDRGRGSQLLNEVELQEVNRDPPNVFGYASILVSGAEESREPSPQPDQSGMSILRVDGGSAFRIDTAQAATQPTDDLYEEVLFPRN
Briefly: AlphaScreen or HTRF; AlphaLISA: GST-pK15 proteins phosphorylated by 2xStrep-Src and His-tagged PLCγ1 fragments, 300 nM each, glutathione donor and Ni chelate acceptor beads, room temperature, 1xPBS, 0.5% BSA, 0.01% Tween 20; both purified.

Assay [2] addresses T1, GST-fused pK15 cytoplasmic tail (pK15 CT WT), phosphorylated in vitro by Src (Kaposi Sarcoma-associated herpesvirus (KSHV, HHV-8)). Description: pull-down; GST-pK15 CT proteins on glutathione beads, phosphorylated in vitro by Src or left unphosphorylated, incubated overnight at 4°C with HEK-293T lysate (transfected or untransfected) in IP buffer (50 mM Tris pH7.6, 60 mM NaCl) with phosphatase inhibitors; Western blot; only the target purified.

No constants are given. Whether binding was seen depends on the method and setting. Binding can be weak; no strength is given. Tags and fused reporters may be left off the sequences shown. For some assays here: Binding seen in cells or lysates may run through a third protein.

With “His-tagged purified PLCγ1 cSH2 domain R694L (domain or fragment)”, in assay [1], the binding entry was “no binding (tested: 300 nM of each protein)”.
Turning to “S-tagged PLCγ1 cSH2 domain, transfected (domain or fragment)”, the binding entry in assay [2] is “binds”.
For “His-tagged purified PLCγ1 nSH2 domain (domain or fragment)”, the binding entry in assay [1] is “no binding (tested: 300 nM of each protein)”.
For “His-tagged purified PLCγ1 tandem SH2 (tSH2) domain (domain or fragment)”, in assay [1], the binding result is “binds”.
Same read-out and setting: in the case of “His-tagged purified PLCγ1 cSH2 domain (domain or fragment)” it was “binds”.
